# Laboratory results as given in the supplement of paper PMC11732987, “Enantioselective OTUD7B fragment discovery through chemoproteomics screening and high-throughput optimisation” (Communications Chemistry, 2025).
# Protein sequences, listed by entry. Tags and fused reporters are not part of them. Lines headed by an entry give the natural chain unless they say otherwise; changes in a name come on top.
# UniProt Q96T51: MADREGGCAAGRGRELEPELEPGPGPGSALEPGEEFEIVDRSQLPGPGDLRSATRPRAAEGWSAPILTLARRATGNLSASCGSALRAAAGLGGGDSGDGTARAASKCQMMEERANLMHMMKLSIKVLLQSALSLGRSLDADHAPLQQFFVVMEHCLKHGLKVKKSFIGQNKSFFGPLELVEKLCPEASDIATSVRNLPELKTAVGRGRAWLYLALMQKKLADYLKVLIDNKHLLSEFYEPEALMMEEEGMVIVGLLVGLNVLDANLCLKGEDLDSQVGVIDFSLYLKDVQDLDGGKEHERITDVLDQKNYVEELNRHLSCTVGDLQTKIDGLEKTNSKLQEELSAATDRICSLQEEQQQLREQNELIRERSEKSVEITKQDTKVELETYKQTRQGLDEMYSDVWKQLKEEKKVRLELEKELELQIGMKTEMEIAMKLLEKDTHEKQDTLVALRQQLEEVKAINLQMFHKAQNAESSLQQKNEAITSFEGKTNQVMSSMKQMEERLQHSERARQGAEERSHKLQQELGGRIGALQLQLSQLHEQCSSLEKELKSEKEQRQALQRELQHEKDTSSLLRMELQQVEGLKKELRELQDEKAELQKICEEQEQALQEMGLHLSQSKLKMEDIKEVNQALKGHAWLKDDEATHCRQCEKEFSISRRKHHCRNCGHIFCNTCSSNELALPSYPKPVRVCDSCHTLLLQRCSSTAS
# UniProt P27694, whole entry, looked up: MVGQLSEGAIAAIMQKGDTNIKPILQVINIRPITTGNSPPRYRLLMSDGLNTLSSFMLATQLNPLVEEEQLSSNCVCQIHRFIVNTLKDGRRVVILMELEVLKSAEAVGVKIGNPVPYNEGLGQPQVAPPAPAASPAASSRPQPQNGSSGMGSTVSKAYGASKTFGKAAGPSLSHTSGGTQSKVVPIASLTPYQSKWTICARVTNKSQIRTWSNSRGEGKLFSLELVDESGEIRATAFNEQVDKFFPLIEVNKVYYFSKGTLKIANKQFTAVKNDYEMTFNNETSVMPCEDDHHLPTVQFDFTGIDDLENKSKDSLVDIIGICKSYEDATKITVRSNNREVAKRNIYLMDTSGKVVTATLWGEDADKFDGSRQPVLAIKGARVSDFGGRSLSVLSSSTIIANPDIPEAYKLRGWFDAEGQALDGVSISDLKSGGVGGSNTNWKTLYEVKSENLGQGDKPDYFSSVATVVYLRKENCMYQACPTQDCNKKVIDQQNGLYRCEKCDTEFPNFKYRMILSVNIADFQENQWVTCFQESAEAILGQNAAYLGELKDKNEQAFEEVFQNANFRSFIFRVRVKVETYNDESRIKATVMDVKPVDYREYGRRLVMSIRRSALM
# UniProt Q5VT52: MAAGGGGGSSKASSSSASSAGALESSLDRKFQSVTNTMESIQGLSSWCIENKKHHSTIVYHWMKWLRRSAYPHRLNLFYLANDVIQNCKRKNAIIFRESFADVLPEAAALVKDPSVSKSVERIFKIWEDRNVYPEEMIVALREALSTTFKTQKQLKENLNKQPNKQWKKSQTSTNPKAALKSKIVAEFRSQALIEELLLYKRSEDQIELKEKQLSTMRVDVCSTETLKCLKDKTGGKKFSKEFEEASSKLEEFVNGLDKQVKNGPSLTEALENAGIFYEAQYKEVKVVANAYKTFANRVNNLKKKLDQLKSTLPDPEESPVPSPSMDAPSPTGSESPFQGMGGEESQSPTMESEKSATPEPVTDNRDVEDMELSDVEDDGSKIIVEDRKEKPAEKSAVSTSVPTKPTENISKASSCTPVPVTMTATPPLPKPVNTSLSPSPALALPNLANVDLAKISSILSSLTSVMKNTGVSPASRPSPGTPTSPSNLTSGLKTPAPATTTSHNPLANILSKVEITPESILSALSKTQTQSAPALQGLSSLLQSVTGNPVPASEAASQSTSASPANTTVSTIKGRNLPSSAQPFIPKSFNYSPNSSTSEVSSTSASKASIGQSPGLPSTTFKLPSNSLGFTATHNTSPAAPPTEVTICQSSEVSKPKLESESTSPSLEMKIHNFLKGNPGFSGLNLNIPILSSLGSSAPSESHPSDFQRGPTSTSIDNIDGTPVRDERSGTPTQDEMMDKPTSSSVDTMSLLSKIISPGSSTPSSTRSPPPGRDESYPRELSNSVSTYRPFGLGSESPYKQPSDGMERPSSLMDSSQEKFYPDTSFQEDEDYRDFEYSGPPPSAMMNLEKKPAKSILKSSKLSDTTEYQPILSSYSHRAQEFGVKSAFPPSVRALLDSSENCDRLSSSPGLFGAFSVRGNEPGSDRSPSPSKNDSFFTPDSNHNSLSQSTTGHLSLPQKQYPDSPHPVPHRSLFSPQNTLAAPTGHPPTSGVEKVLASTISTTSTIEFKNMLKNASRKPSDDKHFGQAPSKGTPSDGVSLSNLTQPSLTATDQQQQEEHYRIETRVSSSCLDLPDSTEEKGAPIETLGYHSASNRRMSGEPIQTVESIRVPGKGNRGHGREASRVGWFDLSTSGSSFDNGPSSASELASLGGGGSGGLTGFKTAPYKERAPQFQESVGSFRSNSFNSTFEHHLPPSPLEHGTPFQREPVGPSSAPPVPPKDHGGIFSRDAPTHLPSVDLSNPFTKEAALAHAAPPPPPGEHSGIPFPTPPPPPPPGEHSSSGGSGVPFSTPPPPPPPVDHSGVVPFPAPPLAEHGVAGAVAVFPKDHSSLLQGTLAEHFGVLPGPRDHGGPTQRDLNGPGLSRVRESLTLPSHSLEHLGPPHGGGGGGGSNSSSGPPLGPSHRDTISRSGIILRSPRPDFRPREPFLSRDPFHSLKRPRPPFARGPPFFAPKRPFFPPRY
# UniProt Q5M7Z0: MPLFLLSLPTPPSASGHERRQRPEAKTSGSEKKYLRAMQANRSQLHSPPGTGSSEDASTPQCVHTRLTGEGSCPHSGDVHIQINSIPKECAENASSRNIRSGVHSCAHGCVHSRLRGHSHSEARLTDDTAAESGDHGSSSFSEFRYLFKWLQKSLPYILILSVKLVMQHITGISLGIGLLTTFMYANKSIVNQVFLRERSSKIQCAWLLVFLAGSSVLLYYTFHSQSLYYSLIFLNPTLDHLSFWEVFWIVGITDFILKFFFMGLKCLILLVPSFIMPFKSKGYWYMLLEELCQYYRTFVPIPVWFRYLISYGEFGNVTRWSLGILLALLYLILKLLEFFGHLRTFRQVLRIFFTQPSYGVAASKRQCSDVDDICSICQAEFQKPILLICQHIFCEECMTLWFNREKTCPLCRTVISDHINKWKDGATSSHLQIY
# UniProt P60602: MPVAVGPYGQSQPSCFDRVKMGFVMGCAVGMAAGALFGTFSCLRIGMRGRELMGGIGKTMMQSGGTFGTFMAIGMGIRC
# UniProt Q5XPI4: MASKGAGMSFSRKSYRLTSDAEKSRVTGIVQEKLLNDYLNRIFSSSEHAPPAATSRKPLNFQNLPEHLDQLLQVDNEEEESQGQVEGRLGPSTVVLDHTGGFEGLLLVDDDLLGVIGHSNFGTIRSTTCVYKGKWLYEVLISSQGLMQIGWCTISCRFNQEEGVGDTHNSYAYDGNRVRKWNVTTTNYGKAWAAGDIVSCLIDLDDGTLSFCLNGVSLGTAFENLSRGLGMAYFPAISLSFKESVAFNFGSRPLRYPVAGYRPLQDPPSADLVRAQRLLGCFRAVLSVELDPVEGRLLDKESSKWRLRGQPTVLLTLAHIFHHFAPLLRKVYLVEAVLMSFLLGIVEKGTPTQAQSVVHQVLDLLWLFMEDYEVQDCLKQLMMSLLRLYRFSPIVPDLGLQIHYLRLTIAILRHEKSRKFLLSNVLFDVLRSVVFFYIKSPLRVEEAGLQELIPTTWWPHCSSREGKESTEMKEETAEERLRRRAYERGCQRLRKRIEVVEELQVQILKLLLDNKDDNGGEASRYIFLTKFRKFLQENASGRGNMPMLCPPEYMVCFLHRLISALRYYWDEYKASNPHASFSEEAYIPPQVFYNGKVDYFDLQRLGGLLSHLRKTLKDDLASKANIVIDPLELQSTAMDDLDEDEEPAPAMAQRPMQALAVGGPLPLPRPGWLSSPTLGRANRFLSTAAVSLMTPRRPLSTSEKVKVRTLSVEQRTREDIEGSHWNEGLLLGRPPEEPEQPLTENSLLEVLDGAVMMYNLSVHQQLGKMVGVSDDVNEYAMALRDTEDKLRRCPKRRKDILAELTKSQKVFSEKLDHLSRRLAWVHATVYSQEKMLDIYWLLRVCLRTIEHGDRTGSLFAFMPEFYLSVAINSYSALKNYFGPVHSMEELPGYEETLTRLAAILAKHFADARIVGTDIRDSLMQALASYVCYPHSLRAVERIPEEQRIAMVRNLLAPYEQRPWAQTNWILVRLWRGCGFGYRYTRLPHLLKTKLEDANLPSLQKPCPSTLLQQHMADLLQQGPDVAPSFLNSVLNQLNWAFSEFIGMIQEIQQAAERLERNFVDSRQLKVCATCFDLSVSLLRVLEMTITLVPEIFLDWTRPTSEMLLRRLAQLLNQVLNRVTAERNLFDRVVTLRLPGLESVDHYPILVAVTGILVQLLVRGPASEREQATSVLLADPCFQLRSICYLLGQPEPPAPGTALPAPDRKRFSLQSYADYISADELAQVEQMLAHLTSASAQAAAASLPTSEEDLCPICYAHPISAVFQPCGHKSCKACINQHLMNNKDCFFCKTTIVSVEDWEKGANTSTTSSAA
# UniProt O75116: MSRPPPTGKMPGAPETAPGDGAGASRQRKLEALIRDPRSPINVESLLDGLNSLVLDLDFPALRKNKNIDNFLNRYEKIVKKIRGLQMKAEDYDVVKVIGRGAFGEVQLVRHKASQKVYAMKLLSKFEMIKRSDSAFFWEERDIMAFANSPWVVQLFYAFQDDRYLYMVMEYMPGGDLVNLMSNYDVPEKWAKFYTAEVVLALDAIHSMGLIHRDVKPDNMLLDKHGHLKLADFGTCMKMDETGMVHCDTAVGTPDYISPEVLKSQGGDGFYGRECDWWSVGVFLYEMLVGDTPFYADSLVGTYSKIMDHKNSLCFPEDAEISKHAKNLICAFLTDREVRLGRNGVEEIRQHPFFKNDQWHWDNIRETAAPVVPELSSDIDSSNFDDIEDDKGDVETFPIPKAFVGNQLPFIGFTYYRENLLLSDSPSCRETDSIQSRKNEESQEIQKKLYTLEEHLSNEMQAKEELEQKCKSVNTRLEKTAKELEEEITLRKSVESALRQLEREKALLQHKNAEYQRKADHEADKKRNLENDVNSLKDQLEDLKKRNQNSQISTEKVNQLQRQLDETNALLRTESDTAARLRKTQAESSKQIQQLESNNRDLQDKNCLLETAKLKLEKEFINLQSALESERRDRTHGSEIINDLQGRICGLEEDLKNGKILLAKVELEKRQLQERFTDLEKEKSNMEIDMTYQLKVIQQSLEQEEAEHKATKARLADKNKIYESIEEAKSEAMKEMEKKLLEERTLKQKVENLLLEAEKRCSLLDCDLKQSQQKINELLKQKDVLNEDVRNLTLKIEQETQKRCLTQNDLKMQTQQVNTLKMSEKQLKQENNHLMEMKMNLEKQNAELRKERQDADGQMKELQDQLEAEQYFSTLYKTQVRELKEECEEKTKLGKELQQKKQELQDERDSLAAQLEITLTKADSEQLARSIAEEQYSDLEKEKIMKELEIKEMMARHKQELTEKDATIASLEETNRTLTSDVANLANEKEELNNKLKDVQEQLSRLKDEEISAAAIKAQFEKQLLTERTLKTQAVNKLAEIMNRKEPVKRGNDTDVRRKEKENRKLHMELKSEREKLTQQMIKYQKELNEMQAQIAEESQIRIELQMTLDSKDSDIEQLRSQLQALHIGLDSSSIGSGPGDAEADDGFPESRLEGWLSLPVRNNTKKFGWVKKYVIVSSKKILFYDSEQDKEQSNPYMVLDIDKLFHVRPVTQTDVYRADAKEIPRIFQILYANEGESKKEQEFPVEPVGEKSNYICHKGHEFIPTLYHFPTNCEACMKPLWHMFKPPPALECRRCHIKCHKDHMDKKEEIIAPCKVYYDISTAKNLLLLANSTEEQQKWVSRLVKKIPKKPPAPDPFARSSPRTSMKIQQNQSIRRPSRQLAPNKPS
# UniProt Q96AT9: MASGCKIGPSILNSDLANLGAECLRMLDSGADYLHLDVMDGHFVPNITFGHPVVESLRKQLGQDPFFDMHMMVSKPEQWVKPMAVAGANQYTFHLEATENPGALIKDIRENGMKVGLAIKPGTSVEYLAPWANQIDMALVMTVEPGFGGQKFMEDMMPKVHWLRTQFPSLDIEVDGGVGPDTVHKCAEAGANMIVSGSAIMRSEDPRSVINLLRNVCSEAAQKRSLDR
# The list shows a part of the results. The data scatter; read single values as rough.
# Compound: ClCC(=O)N[C@H]1CCCc2ccccc12
# Assay: log2 mean competition ratio of IA-DTB cysteine labelling (DMSO/compound) (log2 ratio); higher = stronger cysteine engagement by compound
# Settings: 50 µM; treatment time: 4 h; cell line lysate: HEK293T
# Experimental: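 IA-DTB competitive cysteine chemoproteomics in HEK293T RIPA lysate. Lysates were treated with compound 29 or 30 at 50 or 200 µM for 4 h, then IA-DTB (500 µM, 1 h), trypsin-digested, NeutrAvidin-enriched and analysed by diaPASEF. Competition ratio = intensity DMSO / intensity compound (n=4 treated, n=64 DMSO); binding: mean log2 CR ≥ 1 and p ≤ 0.05 plus QC filters. Target is the cysteine site.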
row,Target,log2 mean competition ratio
1,RNF169 C28 (UniProt Q8NCN4),-0.0692
2,RUFY1 C107 (UniProt Q96T51),0.29
3,SACS C1118 (UniProt Q9NZJ4),-0.25
4,RPA1 C503 (UniProt P27694),-0.4
5,RND2 C18,-0.144
6,RPRD2 C222 (UniProt Q5VT52),-0.246
7,RNMT C73 (UniProt O43148),-0.362
8,RPP30 C225,0.0416
9,RNFT1 C90 (UniProt Q5M7Z0),-0.192
10,ROMO1 C15 (UniProt P60602),-0.0671
11,RNF123 C1180 (UniProt Q5XPI4),-0.134
12,ROCK2 C428 (UniProt O75116),0.509
13,RSL1D1 C96 (UniProt O76021),-0.102
14,RNF31 C572 (UniProt Q96EP0),0.209
15,RUFY3 C385 (UniProt Q7L099),-0.407
16,RPS20 C70 (UniProt P60866),0.282
17,RPP30 C257,-0.159
18,RPE C217 (UniProt Q96AT9),-0.122
19,ROCK2 C1257 (UniProt O75116),0.175
20,ROR1 C575,-0.33

# Same assay, conditions: 200 µM; treatment time: 4 h; cell line lysate: HEK293T
row,Target,log2 mean competition ratio
1,RNF169 C28 (UniProt Q8NCN4),0.151
2,RUFY1 C107 (UniProt Q96T51),0.303
3,SACS C1118 (UniProt Q9NZJ4),-0.112
4,RPA1 C503 (UniProt P27694),-0.191
5,RND2 C18,0.464
6,RPRD2 C222 (UniProt Q5VT52),0.156
7,RNMT C73 (UniProt O43148),0.19
8,RPP30 C225,0.0676
9,RNFT1 C90 (UniProt Q5M7Z0),-0.0135
10,ROMO1 C15 (UniProt P60602),0.582
11,RNF123 C1180 (UniProt Q5XPI4),0.297
12,ROCK2 C428 (UniProt O75116),0.353
13,RSL1D1 C96 (UniProt O76021),0.133
14,RNF31 C572 (UniProt Q96EP0),0.052
15,RUFY3 C385 (UniProt Q7L099),-0.478
16,RPS20 C70 (UniProt P60866),-0.219
17,RPP30 C257,0.142
18,RPE C217 (UniProt Q96AT9),-0.202
19,ROCK2 C1257 (UniProt O75116),-0.392
20,ROR1 C575,-0.489
